Tested on: mKate2 tagged Tau
Test: Tau-mKate2 fluorescence EC50
Assay type: cell-based, Human
Conditions: therapeutic index, ratio LC50:EC50, upper limit 200 mM
Description: 1) HEK cells with tet-regulated expression of mKate2 tagged Tau were grown in DMEM medium (Dulbecco's Modified Eagle's Medium) containing 0.5 μg/mL doxycycline (Dox)(MP-Bio#198955), after 3-5 days Dox was removed by washing the cells twice with sterile phosphate buffered saline (PBS; Invitrogen#14190-144), cells were left in DMEM without Dox for 72 hours (to further clear remaining Dox in cells).
The test compounds (along with CytoID™ dye and Hoechst stain) were added to the cells and incubated for 3 hours. Reference compounds were also used in each plate, Rapamycin was used for autophagy induction and chloroquine was used for lysosomal inhibition. […] Cells were then washed and read using a fluorescence plate reader. Hoescht, Cyto-ID™ and mKate2 were measured using 3 distinct wavelengths on the plate reader. […] After reading, test compound was re-added and the cells are left for a further 21 hours. At the 24 hour time point cells were once again washed and plates read using the fluorescence plate reader.
5) Treatment plate was then washed quickly 3 times with warm FB-DMEM (100 μL/well). […] At this point, the plate was ready for reading. See details in Reading Plate section. Hoescht was read at Excitation wavelength (Ex)=355 nm & Emission wavelength (Em)=446 nm. mKate2 was read at Ex=575 nm & Em=630 nm. Cyto-ID™ was read at Ex=463 nm & Em=534 nm. […]

Structure (SMILES)	TI-mKate2
Ic1ccc2ncnc(SC3CCCC3)c2c1 [WHYKD30]	180
c1cnc2c(SC3CCCC3)ncnc2c1 [WHYKD36]	64

Reference: patent publication US10487091B2, “Activators of autophagic flux and phospholipase D and clearance of protein aggregates including tau and treatment of proteinopathies” (THE TRUSTEES OF COLUMBIA UNIVERSITY IN THE CITY OF NEW YORK, priority 2015, dated 2019)
